# Results: PubChem BioAssay AID504834 (National Center for Advancing Translational Sciences (NCATS), 2011)
# The campaign covered roughly 320,000 compounds. About 22,000 (6.9%) were called active. The shares of active, inactive and inconclusive entries below differ from those in the screen. Calls come from the whole dose curve; as a rule, active = well fitted inhibition curve with a large enough effect; inconclusive = small, poorly fitted or top-dose-only effect, or another doubt; inactive = no such curve, though single readings can be large or run the other way. Potencies of inconclusive entries are doubtful fits and often do not repeat.
# Assay: Primary qHTS for delayed death inhibitors of the malarial parasite plastid, 96 hour incubation
# Settings: P. falciparum luciferase reporter growth; series mostly up to 28.7 µM
# Procedure, shortened: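 Delayed-death screen, second-generation endpoint: infected erythrocytes, 2% hematocrit, 0.05% parasitemia final; 96 hours at 37 C, 5% CO2; luciferase detection reagent; luminescence decrease equals reduced growth.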
# Potency is the fitted concentration of half-maximal effect.
row,Structure (SMILES),Potency
1,COC(=O)c1ccc(Oc2cc(C)nc(Cl)n2)cc1,inactive
2,Cn1c(=O)c2c(SCC(=O)N3CCCC3)nc(CC(C)(C)C)nc2n(C)c1=O,active: 13.1 µM
3,COc1ccc(CNC(=O)C(OC(=O)c2cccs2)C(C)C)cc1 (stereo not given),inactive
4,COc1cccc(C2CCCN2Cc2nc(CCC(C)C)no2)c1 (stereo not given),"inconclusive: 18.5 µM [inhibitor, single point]"
5,COc1ccc(NC(=O)C(CCSC)N2C(=O)c3ccccc3C2=O)cc1 (stereo not given),"inconclusive: 16.5 µM [inhibitor, single point]"
6,O=C(Nc1ccc([N+](=O)[O-])cc1)C(Cc1ccccc1)N1C(=O)c2cccc3cccc(c23)C1=O (stereo not given),"inconclusive: 4.15 µM [inhibitor, single point]"
7,CC(=O)N/C(=N/c1nc(C)cc(C)n1)Nc1ccc(F)cc1F,inactive
8,CCNc1oc(/C=C/c2ccc(OCC)cc2)nc1C#N,"inconclusive: 18.5 µM [inhibitor, single point]"
9,C/C=C1/C[N+]2(C)CCC34C(=C(C=O)[C@H]1C[C@@H]32)Nc1ccccc14 (stereo not given in full),"inconclusive: 1.17 µM [inhibitor, full curve]"
10,CCOc1ccc(N(CC(=O)NCCc2ccc(Cl)cc2)S(=O)(=O)c2c(C)[nH]c(=O)[nH]c2=O)cc1,"inconclusive: 18.5 µM [inhibitor, single point]"
11,Cc1cc(C(=O)Nc2c(C)nn(Cc3ccccc3)c2C)on1,"inconclusive: 10.4 µM [inhibitor, single point]"
12,O=C(CSc1ccccn1)N/N=C/c1cccc([N+](=O)[O-])c1,"inconclusive: 14.7 µM [inhibitor, partial curve, poor fit]"
13,O=S(=O)(c1ccc(-c2cnc(C3CC3)o2)cc1)N1CCN(c2ccccc2)CC1,"inconclusive: 10.4 µM [inhibitor, partial curve]"
14,Cc1ccc(NC(=S)N(Cc2ccccc2)Cc2cccs2)c(C)c1,"inconclusive: 18.5 µM [inhibitor, single point]"
15,CN(C)C(CNC(=O)CCc1nc2ccccc2s1)c1ccccc1 (stereo not given),inactive
16,CC(=O)N(C)c1ccc(NC(=S)Nc2cccc3ccccc23)cc1,"inconclusive: 13.1 µM [inhibitor, partial curve, poor fit]"
17,C=CCOC(=O)C1=C[C@H](c2cn(C(C)=O)c3ccccc23)C[C@H](OCc2ccc(CO)cc2)O1,"inconclusive: 18.5 µM [inhibitor, single point]"
18,CSc1ccccc1NC(=O)CN(C)Cc1cccc(Cl)c1,"inconclusive: 18.5 µM [inhibitor, single point]"
19,O=C1Nc2ccccc2C12OCCO2,"inconclusive: 14.7 µM [inhibitor, partial curve]"
20,CCCOc1ccc(C(=O)NCC(c2cccs2)N(C)C)cc1OC (stereo not given),inactive
21,Cc1ccccc1NC1=C(Cl)C(=O)OC1OC(=O)c1ccco1 (stereo not given),"inconclusive: 18.5 µM [inhibitor, single point]"
22,COc1ccccc1N1CCN(C2CCCN(C(=O)CCC(C)=O)C2)CC1 (stereo not given),inactive
23,Clc1ccc(-c2nc3ccccc3n2OCc2ccccc2)cc1,"inconclusive: 8.28 µM [inhibitor, partial curve, poor fit]"
24,Cc1cccc(C)c1NC(=O)CNC(=O)c1ccc(COc2ccccc2)cc1,inactive
25,c1cncc(-c2nc(NCCCN3CCOCC3)c3c4c(sc3n2)CCC4)c1,"inconclusive: 5.22 µM [inhibitor, partial curve, poor fit]"

row,Structure (SMILES),Potency
1,COCC(=O)N1CCC(Oc2ccc(C(=O)NCc3cc(C(C)C)no3)cc2)CC1,"inconclusive: 11.7 µM [inhibitor, single point]"
2,COc1ccccc1N1CCN(C(=O)CSc2ccc3c(C)cc(C)nc3n2)CC1,inactive
3,Cc1nc(SCC(=O)NC2CCS(=O)(=O)C2)c2c(C)c(C)sc2n1 (stereo not given),"inconclusive: 1.65 µM [inhibitor, full curve]"
4,CCCN1Cc2cccc(C(=O)NCc3ccc(C)cc3)c2C1=O,"inconclusive: 18.5 µM [inhibitor, single point]"
5,COc1ccccc1N1CCN(CC(=O)N2N=CCC2c2ccccc2)CC1 (stereo not given),"inconclusive: 0.233 µM [inhibitor, full curve, poor fit]"
6,Cn1c(=N)c(S(=O)(=O)c2ccccc2)cc2c(=O)n3ccccc3nc21,inactive
7,CC1CC(c2ccccc2)n2nc(NC(=O)c3ccco3)nc2N1 (stereo not given),active: 8.28 µM
8,COc1ccc(N2C(=O)C3C(C2=O)C(C(=O)c2ccccc2)N2CCCC32)cc1 (stereo not given),"inconclusive: 10.4 µM [inhibitor, partial curve, poor fit]"
9,CCCC(=O)Nc1nn(CC)c2nc3ccc(C)cc3cc12,"inconclusive: 3.29 µM [inhibitor, full curve, poor fit]"
10,COc1cccc(Nc2nc(-c3sc(NC(=O)CC(C)C)nc3C)cs2)c1,active: 13.1 µM
11,COc1ccc(CCN2CCCC(CN(C)Cc3cc(Cl)c(O)c(OC)c3)C2)cc1 (stereo not given),inactive
12,Cn1cccc1C(=O)Nc1nc(-c2ccccn2)cs1,active: 14.7 µM
13,COc1ccc(CNC(=O)C2CC(C)=C(C)CC2C(=O)O)cc1OC (stereo not given),"inconclusive: 13.1 µM [inhibitor, partial curve]"
14,COc1ccc(CCNC(=O)C(=O)NCC2OCCN2S(=O)(=O)c2ccc(C)cc2)cc1OC (stereo not given),"inconclusive: 0.185 µM [inhibitor, full curve, poor fit]"
15,Cc1nc(N2CCC(C)CC2)c2c(C)c(C(=O)Nc3ccc(C(F)(F)F)cc3)sc2n1,"inconclusive: 14.7 µM [inhibitor, partial curve, poor fit]"
16,CC1CCCCN1C(=O)Cn1cnc2cc([N+](=O)[O-])ccc2c1=O (stereo not given),inactive
17,NS(=O)(=O)c1ccc(Oc2ccc(S(N)(=O)=O)cc2)cc1,inactive
18,Cc1ccc(S(=O)(=O)N[C@@H](C)C(=O)OCC(=O)N2c3ccccc3NC(=O)C2(C)C)cc1,inactive
19,Cc1cc(C)nc(/N=C(\N)Nc2ccc3c(c2)OCCO3)n1,inactive
20,COC(=O)c1ccc(CNC(=O)CNc2cc(C(F)(F)F)ccc2N2CCOCC2)cc1,active: 8.28 µM
21,CC(C)CC(=O)Nc1c(C(=O)N2CCN(Cc3ccccc3)CC2)oc2ccccc12,"inconclusive: 13.1 µM [inhibitor, partial curve]"
22,Cc1ccc(S(=O)(=O)N2CCC3(CC2)OCCO3)cc1,"inconclusive: 0.465 µM [inhibitor, full curve, poor fit]"
23,Nc1ccc(Oc2ccc(F)cc2)nc1,inactive
24,O=C(CCC(=O)c1ccc(Br)cc1)Nc1cccnc1,"inconclusive: 20.8 µM [inhibitor, partial curve, poor fit]"
25,COc1ccc(NC(=O)CN(C)S(=O)(=O)c2cnc[nH]2)cc1OC,"inconclusive: 18.5 µM [inhibitor, single point]"

row,Structure (SMILES),Potency
1,COc1ccc2oc(C(=O)OCC(=O)NCc3ccco3)c(C)c2c1,inactive
2,CCN(CC(=O)O)S(=O)(=O)c1cc(Cl)ccc1Cl,active: 13.1 µM
3,CCN(CC)CCNC(C(=O)OCCC(C)C)c1ccccc1 (stereo not given),active: 13.5 µM
4,COc1ccc(C(=O)NNc2ccccc2)cc1OC,"inconclusive: 2.62 µM [inhibitor, partial curve, poor fit]"
5,Cc1nonc1NC(=O)CSc1nc2c(C)cccc2cc1C#N,active: 10.4 µM
6,O=C(CN1C(=O)C2CC=C(Cl)CC2C1=O)Nc1ccc(C(=O)O)cc1 (stereo not given),active: 13.1 µM
7,COCCNS(=O)(=O)c1cccc2cccnc12,"inconclusive: 11.7 µM [inhibitor, single point]"
8,COc1ccc(NC(=O)CCc2c(C)nn(-c3ccc(N4CCOCC4)nn3)c2C)cc1,"inconclusive: 18.5 µM [inhibitor, single point]"
9,CC1CCN(C(=O)CN2C(=O)C(C)(C)Oc3ccc(C(=O)NC(C)C)cc32)CC1,inactive
10,NC(N)=Nc1nc2ccc(Cl)cc2c(=O)[nH]1,inactive
11,FC(F)(F)c1cnc(-c2cnc(-c3ccccn3)nc2)c(Cl)c1,active: 6.57 µM
12,CCn1c(=NC(=O)CCS(=O)(=O)c2ccccc2)sc2cccc(OC)c21,"inconclusive: 11.7 µM [inhibitor, partial curve, poor fit]"
13,O=C(Nc1cccc(-c2ccc(N3CCCCC3)nn2)c1)c1ccco1,inactive
14,Cc1ccc(C)c(OCC(=O)NC2CCCCCC2)c1,inactive
15,Cc1ccc(/C(O)=C/c2nc3ccccc3oc2=O)cc1,inactive
16,O=C(NCCCN1CCOCC1)Nc1ccc(Cc2ccc(NC(=O)NCCCN3CCOCC3)cc2)cc1,active: 1.65 µM
17,Cc1ccc(-n2nnnc2SCC(=O)Nc2ccc(N3CCN(C)CC3)cc2)c(C)c1,inactive
18,COc1ccc(-c2noc(CNC(=O)c3ccc4c(c3)OCO4)n2)cc1,inactive
19,COc1ccc(C(=O)NCC(c2ccccc2)N2CCCC2)cc1S(=O)(=O)N1CCOCC1 (stereo not given),"inconclusive: 18.5 µM [inhibitor, single point]"
20,CC(=Nc1ccc(F)cc1)c1c(O)n(C)c(=O)[nH]c1=O,"inconclusive: 10.4 µM [inhibitor, single point]"
21,C/C(=N/N1CCN(c2ccccn2)CC1)c1cccc([N+](=O)[O-])c1,inactive
22,O=C(NN=C1CCCCC1)c1ccccc1-n1cccc1,inactive
23,CC(=O)Nc1ccc2c(c1)CCCC2,inactive
24,COC(=O)c1ccc(-c2noc(CN3CCCCC3c3nccn3C)n2)cc1 (stereo not given),"inconclusive: 10.4 µM [inhibitor, single point]"
25,CN(C(=O)CC1C(=O)NCCN1Cc1ccc(F)c(F)c1)C1CCCCC1 (stereo not given),"inconclusive: 0.0037 µM [inhibitor, full curve, poor fit]"

# Copied from the list.
# Value for CCn1c(=NC(=O)CCS(=O)(=O)c2ccccc2)sc2cccc(OC)c21 under Potency: inconclusive: 11.7 µM [inhibitor, partial curve, poor fit]
# Value for Cc1nonc1NC(=O)CSc1nc2c(C)cccc2cc1C#N under Potency: active: 10.4 µM
# Value for FC(F)(F)c1cnc(-c2cnc(-c3ccccn3)nc2)c(Cl)c1 under Potency: active: 6.57 µM
# Value for O=C(Nc1cccc(-c2ccc(N3CCCCC3)nn2)c1)c1ccco1 under Potency: inactive
# Value for CCN(CC(=O)O)S(=O)(=O)c1cc(Cl)ccc1Cl under Potency: active: 13.1 µM
